{"source": "the supplement of paper PMC6411743", "experiment_in_all_cases": "NP40-soluble protein abundance relative to vehicle (solubility fold change) (ratio); higher = more soluble protein in presence of GTP", "key": {"[1]": {"target": "T1, DDX52 (UniProt Q9Y2R4)", "T1 sequence (whole entry)": "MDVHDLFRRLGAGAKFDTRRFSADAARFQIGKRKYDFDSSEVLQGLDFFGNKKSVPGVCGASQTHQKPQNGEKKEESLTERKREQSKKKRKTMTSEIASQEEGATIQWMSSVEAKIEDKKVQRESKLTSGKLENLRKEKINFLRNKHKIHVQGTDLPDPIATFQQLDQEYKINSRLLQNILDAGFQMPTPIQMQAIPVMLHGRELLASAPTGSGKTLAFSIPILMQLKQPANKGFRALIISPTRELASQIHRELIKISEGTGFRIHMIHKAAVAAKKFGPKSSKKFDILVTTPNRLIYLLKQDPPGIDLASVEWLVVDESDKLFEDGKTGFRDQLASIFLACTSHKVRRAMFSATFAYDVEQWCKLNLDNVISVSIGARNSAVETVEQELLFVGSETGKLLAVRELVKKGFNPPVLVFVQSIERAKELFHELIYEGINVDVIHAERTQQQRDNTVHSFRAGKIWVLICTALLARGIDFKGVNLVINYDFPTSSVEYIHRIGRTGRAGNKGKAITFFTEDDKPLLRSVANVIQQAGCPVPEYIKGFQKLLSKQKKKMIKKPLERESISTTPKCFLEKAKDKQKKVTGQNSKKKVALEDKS", "outline": "(§1)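 Crude Jurkat lysate, prepared by Dounce homogenisation, was exposed to eight concentrations from 0.1 to 10 mM for 10 min at room temperature and then 3 min at 37 °C. Solubilisation used 0.8% NP40 with benzonase for 60 min at 4 °C, followed by ultracentrifugation and TMT labelling of the supernatant for LC-MS/MS. After vsn normalisation of intensities, each value is the fold change against the detergent-processed vehicle within each replicate, across three independent experiments.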"}, "[2]": {"target": "T2, DERA (UniProt Q9Y315)", "T2 sequence (whole entry)": "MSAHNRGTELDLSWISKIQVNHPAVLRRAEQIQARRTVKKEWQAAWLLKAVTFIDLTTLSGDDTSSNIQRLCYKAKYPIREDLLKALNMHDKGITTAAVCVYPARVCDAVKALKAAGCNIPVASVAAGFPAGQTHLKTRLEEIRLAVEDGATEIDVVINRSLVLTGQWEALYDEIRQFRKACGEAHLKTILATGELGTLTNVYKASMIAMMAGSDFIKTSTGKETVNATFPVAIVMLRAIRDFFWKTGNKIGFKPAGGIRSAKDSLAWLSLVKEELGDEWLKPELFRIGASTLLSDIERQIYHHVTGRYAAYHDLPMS", "outline": "as §1"}, "[3]": {"target": "T3, FHOD1 (UniProt Q9Y613)", "T3 sequence (whole entry)": "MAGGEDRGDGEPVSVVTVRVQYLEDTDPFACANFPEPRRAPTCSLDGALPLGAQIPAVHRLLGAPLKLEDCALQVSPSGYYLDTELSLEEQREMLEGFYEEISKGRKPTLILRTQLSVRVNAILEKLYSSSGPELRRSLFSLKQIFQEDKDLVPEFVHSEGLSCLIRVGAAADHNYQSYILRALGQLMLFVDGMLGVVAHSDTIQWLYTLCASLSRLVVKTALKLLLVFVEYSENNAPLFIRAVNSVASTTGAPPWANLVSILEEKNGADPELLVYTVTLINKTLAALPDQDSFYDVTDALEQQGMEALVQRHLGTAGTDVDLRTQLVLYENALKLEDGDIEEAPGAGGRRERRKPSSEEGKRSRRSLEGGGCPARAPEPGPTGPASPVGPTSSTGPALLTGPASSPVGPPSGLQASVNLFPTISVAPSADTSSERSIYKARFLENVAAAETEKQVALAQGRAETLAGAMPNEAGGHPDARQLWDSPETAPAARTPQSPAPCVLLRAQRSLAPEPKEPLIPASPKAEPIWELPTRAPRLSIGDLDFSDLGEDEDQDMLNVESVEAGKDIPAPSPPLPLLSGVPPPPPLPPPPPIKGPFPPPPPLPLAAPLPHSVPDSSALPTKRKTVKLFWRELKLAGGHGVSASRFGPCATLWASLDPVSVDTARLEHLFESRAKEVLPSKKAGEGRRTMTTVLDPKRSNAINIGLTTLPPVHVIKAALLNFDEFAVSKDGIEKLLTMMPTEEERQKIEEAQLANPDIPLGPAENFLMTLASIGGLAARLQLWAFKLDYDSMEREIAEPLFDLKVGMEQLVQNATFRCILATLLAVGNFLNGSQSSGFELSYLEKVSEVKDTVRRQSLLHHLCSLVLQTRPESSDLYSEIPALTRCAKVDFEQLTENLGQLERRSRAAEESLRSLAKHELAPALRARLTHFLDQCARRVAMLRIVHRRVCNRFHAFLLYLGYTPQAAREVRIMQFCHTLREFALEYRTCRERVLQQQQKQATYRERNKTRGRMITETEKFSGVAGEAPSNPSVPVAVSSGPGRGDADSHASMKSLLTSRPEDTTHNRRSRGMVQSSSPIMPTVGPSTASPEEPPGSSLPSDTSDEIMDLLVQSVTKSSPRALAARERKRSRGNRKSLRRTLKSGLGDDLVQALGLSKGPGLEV", "outline": "as §1"}, "[4]": {"target": "T4, FIS1 (UniProt Q9Y3D6)", "T4 sequence (whole entry)": "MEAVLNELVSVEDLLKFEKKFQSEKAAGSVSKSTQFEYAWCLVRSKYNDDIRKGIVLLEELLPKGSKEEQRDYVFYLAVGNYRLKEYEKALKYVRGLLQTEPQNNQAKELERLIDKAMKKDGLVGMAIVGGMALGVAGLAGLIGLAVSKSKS", "outline": "as §1"}}, "note": "± gives the standard deviation of the averaged measurements. The list shows a part of the results.", "data": [{"smiles": "Nc1nc2c(ncn2[C@@H]2O[C@H](COP(=O)(O)OP(=O)(O)OP(=O)(O)O)[C@@H](O)[C@H]2O)c(=O)[nH]1", "note": "[guanosine triphosphate]", "values": [{"measurement": "NP40-soluble protein abundance", "setting": "[1]; concentration: 4mM", "result": "1.35 ± 0.029"}, {"measurement": "NP40-soluble protein abundance", "setting": "[1]; concentration: 6mM", "result": "1.35 ± 0.049"}, {"measurement": "NP40-soluble protein abundance", "setting": "[1]; concentration: 8mM", "result": "1.47 ± 0.039"}, {"measurement": "NP40-soluble protein abundance", "setting": "[1]; concentration: 10mM", "result": "1.57 ± 0.042"}, {"measurement": "NP40-soluble protein abundance", "setting": "[2]; concentration: 0.1mM", "result": "1.05 ± 0.085"}, {"measurement": "NP40-soluble protein abundance", "setting": "[2]; concentration: 0.5mM", "result": "1.17 ± 0.19"}, {"measurement": "NP40-soluble protein abundance", "setting": "[2]; concentration: 1mM", "result": "1.16 ± 0.2"}, {"measurement": "NP40-soluble protein abundance", "setting": "[2]; concentration: 2mM", "result": "1.21 ± 0.23"}, {"measurement": "NP40-soluble protein abundance", "setting": "[2]; concentration: 4mM", "result": "1.2 ± 0.22"}, {"measurement": "NP40-soluble protein abundance", "setting": "[2]; concentration: 6mM", "result": "1.19 ± 0.23"}, {"measurement": "NP40-soluble protein abundance", "setting": "[2]; concentration: 8mM", "result": "1.2 ± 0.21"}, {"measurement": "NP40-soluble protein abundance", "setting": "[2]; concentration: 10mM", "result": "1.15 ± 0.21"}, {"measurement": "NP40-soluble protein abundance", "setting": "[3]; concentration: 0.1mM", "result": "1.03 ± 0.051"}, {"measurement": "NP40-soluble protein abundance", "setting": "[3]; concentration: 0.5mM", "result": "1.01 ± 0.023"}, {"measurement": "NP40-soluble protein abundance", "setting": "[3]; concentration: 1mM", "result": "0.992 ± 0.059"}, {"measurement": "NP40-soluble protein abundance", "setting": "[3]; concentration: 2mM", "result": "0.958 ± 0.042"}, {"measurement": "NP40-soluble protein abundance", "setting": "[3]; concentration: 4mM", "result": "0.99 ± 0.025"}, {"measurement": "NP40-soluble protein abundance", "setting": "[3]; concentration: 6mM", "result": "0.942 ± 0.049"}, {"measurement": "NP40-soluble protein abundance", "setting": "[3]; concentration: 8mM", "result": "0.921 ± 0.026"}, {"measurement": "NP40-soluble protein abundance", "setting": "[3]; concentration: 10mM", "result": "0.932 ± 0.074"}, {"measurement": "NP40-soluble protein abundance", "setting": "[4]; concentration: 0.1mM", "result": "1.08 ± 0.34"}, {"measurement": "NP40-soluble protein abundance", "setting": "[4]; concentration: 0.5mM", "result": "1.01 ± 0.23"}, {"measurement": "NP40-soluble protein abundance", "setting": "[4]; concentration: 1mM", "result": "1.14 ± 0.32"}, {"measurement": "NP40-soluble protein abundance", "setting": "[4]; concentration: 2mM", "result": "1.14 ± 0.23"}, {"measurement": "NP40-soluble protein abundance", "setting": "[4]; concentration: 4mM", "result": "1.1 ± 0.27"}, {"measurement": "NP40-soluble protein abundance", "setting": "[4]; concentration: 6mM", "result": "1.14 ± 0.18"}, {"measurement": "NP40-soluble protein abundance", "setting": "[4]; concentration: 8mM", "result": "1.1 ± 0.2"}, {"measurement": "NP40-soluble protein abundance", "setting": "[4]; concentration: 10mM", "result": "1.15 ± 0.34"}]}]}
